Data: patent publication US7745397B2, “Peptide useful in immunomodulation” (CureTech Ltd., priority 2001, dated 2010)
Part of at least one peptide drawing is inferred or uncertain, most often the ends. Some results were stated once for a whole list of compounds, not compound by compound. Where a SMILES comes first, the peptide text is derived from it.

Legend:
[1] = system: anti-Peptide A antibodies in sera; assay: ELISA of specific anti-peptide antibody in sera of immunized mice; format: in vivo, C57BL mice; conditions: day 21 and 28 after immunization; ELISA on immobilized peptide; versus control mice; FIG. 4
[2] = system: YAC, B16 or 3LL target cells; assay: NK and CTL cytolytic activity of splenocytes of peptide-immunized mice (51Cr release); format: cell-based, mouse; conditions: YAC day 7, B16 and 3LL day 21 after immunization; effector-to-target ratios 1:5, 1:25, 1:50; FIG. 8
[3] = system: B16 melanoma cells; assay: In vivo effect of peptide immunization on s.c. B16 melanoma tumor volume; set-up: species or system C57BL mice; conditions: 20 μg peptide in CFA into footpad, boost in PBS; versus CFA control; n=4; FIG. 3
[4] = molecular target: BAT monoclonal antibody; assay: Phage-ELISA: inhibition of BAT mAb binding to immobilized phage by free synthetic peptide; set-up: species or system mouse; conditions: 6 μg/ml BAT mAb pre-incubated with increasing amount of synthetic peptide, FIG. 1, read-out: inhibition concentration (IC50) of BAT mAb binding to immobilized phage
[5] = system: BAT mAb binding to Daudi cells; assay: FACS analysis of peptide inhibition of BAT mAb binding to Daudi cells; conditions: biotinylated BAT 20 μg/ml, peptide 1 to 40 μg/ml, FIG. 2

CC[C@H](C)[C@H](NC(=O)[C@H](CCCCN)NC(=O)[C@H](CCCNC(=N)N)NC(=O)[C@@H]1CCCN1C(=O)[C@H](CCCCN)NC(=O)[C@@H](NC(=O)[C@H](CCCNC(=N)N)NC(=O)[C@H](CCCNC(=N)N)NC(=O)[C@@H]1CCCN1)[C@@H](C)CC)C(=O)N[C@@H](CCSC)C(=O)N[C@@H](CC(C)C)C(=O)N[C@@H](CCC(N)=O)C(=O)O [Peptide A, Pro Arg Arg Ile Lys Pro Arg Lys Ile Met Leu Gln] (H-PRRIKPRKIMLQ-OH)
anti-Peptide A antibodies in sera [1]: higher concentrations of anti-Peptide A antibodies
splenocyte cytotoxicity, % lysis [2]: ≤ 80%
average melanoma tumor volume [3]: growth inhibition
IC50 [4]: 660 nM
inhibition of BAT mAb binding to Daudi cells [5]: inhibited the binding of BAT mAb to Daudi cells in a dose dependent manner

CC[C@H](C)[C@H](NC(=O)[C@H](CCCNC(=N)N)NC(=O)[C@@H]1CCCN1C(=O)[C@H](CC(C)C)NC(=O)[C@H](CC(N)=O)NC(=O)[C@@H](NC(=O)[C@H](CCC(N)=O)NC(=O)[C@H](CCC(N)=O)NC(=O)[C@H](CC(C)C)NC(=O)[C@@H](NC(=O)[C@H](CCCNC(=N)N)NC(=O)[C@@H](N)CCC(N)=O)[C@@H](C)CC)[C@@H](C)CC)C(=O)O [Peptide B, Gln Arg Ile Leu Gln Gln Ile Asn Leu Pro Arg Ile] (H-QRILQQINLPRI-OH)
splenocyte cytotoxicity, % lysis [2]: ≤ 80%
